These are yes or no findings as the source states them, for the method shown.

This note sets out measurements from PMC4219657, “Structural and Mechanistic Basis of Zinc Regulation Across the E. coli Zur Regulon” (PLoS Biology, 2014).

The target of the assay is E. coli Zur site A mutant C103S (E. coli) (UniProt P0AC51). As to the kind of experiment: SEC; analytical gel filtration of WT Zur, C103S and C88S; elution volume of WT (10.9 ml) as reference; column and buffer not told; both purified. (In gel filtration, larger molecules generally elute earlier.)

B1: E. coli Zur site A mutant C103S (protein, UniProt P0AC51 1-171)
chain: MEKTTTQELLAQAEKICAQRNVRLTPQRLEVLRLMSLQDGAISAYDLLDLLREAEPQAKPPTVYRALDFLLEQGFVHKVESTNSYVLCHLFDQPTHTSAMFISDRCGAVKEECAEGVEDIMHTLAAKMGFALRHNVIEAHGLCAACVEVEACRHPEQCQHDHSVQVKKKPR
Consider B1, for which the binding entry was “no binding”.
